The campaign covered roughly 350,000 compounds. About 6,000 (1.7%) were called active. The shares of active, inactive and inconclusive entries below differ from those in the screen. Cut-off read from the data, not from the text of the source: active = CPE inhibition above about 20% (passing the limit was not always enough); inconclusive = no clear call, values can overlap the other calls; tested in BHK-21 cells. More than one record can exist for a structure, and the calls need not agree.
Assay: protection of cells from dengue 2 killing – plate reader, single concentration, primary screen (AID 651640);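 note: 0% = median of neutral control wells and 100% = median of positive control wells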
Conditions: DENV2-infected cells, cytopathic effect rescue, at 9.99 µM, active compounds read high

SMILES	CPE inhibition
C[C@@H]1CN([C@@H](C)CO)C(=O)c2cc(NC(=O)CCC(F)(F)F)ccc2O[C@@H]1CN(C)S(=O)(=O)c1ccc(F)cc1	inconclusive: 25.3%
CCS(=O)(=O)N1CCC2(CC1)CN(C(=O)c1ccc(F)cc1)[C@@H](CO)c1c2c2ccc(OC)cc2n1C	active: 24.2%
C[C@@H]1CN([C@@H](C)CO)C(=O)c2cc(N(C)C)ccc2O[C@@H](C)CCCCO[C@H]1CN(C)C(=O)c1ccncc1	inconclusive: 53.9%
C[C@@H]1CN([C@@H](C)CO)C(=O)c2cc(NC(=O)Nc3ccc4c(c3)OCO4)ccc2O[C@H]1CN(C)Cc1ccc(Cl)c(Cl)c1	inactive: -8.7%
CN(C)C(=O)c1ccc(-c2ccc([C@H]3[C@@H](C#N)N(C(=O)Cc4ccccn4)[C@@H]3CO)cc2)cc1	inconclusive: 35%
CCC(=O)N1CC[C@@H]2[C@H](CO)Nc3ccc(C#Cc4cccnc4)cc3[C@@H]21	inactive: -2.47%
COC(=O)c1ccc2nc(-c3ccc(F)cc3)c(Cc3ccccc3OC)n2c1	active: 49.6%
O=C(CSc1ncccn1)NC(=O)NC1CCCC1	inconclusive: 25.3%
CCCC(=O)Nc1ccc2c(c1)C(=O)N(C)[C@H]1CC[C@H](CC(=O)NCC(F)(F)F)O[C@@H]1CO2	inactive: 1.47%
COc1ccc(CN(C)C[C@@H]2Oc3c(NS(=O)(=O)c4ccc(OC)cc4)cccc3C(=O)N([C@H](C)CO)C[C@H]2C)cc1	inconclusive: 23%
O=C(O)/C=C/C(=O)O	inconclusive: 68.4%
COCC#Cc1ccc([C@H]2[C@@H](CO)N3C(=O)CN(C(=O)Nc4ccccc4F)C[C@H]23)cc1	inactive: -2.28%
Cc1ccc(N2C(=O)NC(NS(=O)(=O)c3ccc(C)cc3)(C(F)(F)F)C2=O)cc1 (stereo not given)	inconclusive: 27.6%
COc1ccc(NC(=O)C2(C)CCN2Cc2ccccc2Cl)cc1OC (stereo not given)	inconclusive: 33.3%
O=C(Nc1ccc2c(c1)OCCO2)C(c1ccnc2ccccc12)n1c(=O)c(-c2ccco2)nc2ccccc21 (stereo not given)	active: 50.3%
CN(C)C(=O)c1cccc(-c2ccccc2[C@H]2[C@@H](C#N)N(C(=O)C3CC3)[C@H]2CO)c1	active: 42.9%
Nc1nc(SCc2ccccc2)sc1C(=O)N1CCCCC1	inconclusive: 20.9%
CC(C)N1CCc2c(sc(NC(=O)CCS(=O)(=O)c3ccccc3)c2C(N)=O)C1	inconclusive: 20%
Cc1ccc(S(=O)(=O)CCC(=O)c2ccc(F)cc2)cc1	inactive: -9.41%
C[C@H](CO)N1C[C@H](C)[C@@H](CN(C)C(=O)Cc2ccncc2)Oc2cc(C#CC3CCCC3)ccc2S1(=O)=O	inactive: -13%
COc1ccc(S(=O)(=O)N2CCCCCC2)cc1C(=O)OC(C)C(N)=O (stereo not given)	inconclusive: 20.7%
CC(=O)Nc1ccc2c(c1)C(=O)N(C)[C@@H]1CC[C@H](CC(=O)NCC3CC3)O[C@@H]1CO2	inconclusive: 26.1%
C#CCN(CC=C)C(=O)c1cccc(OC2CCN(S(C)(=O)=O)CC2)c1	inconclusive: 23.5%

SMILES	CPE inhibition
COc1ccc(S(=O)(=O)N2CCOCC2)cc1NC(=O)COC(=O)C1COc2ccccc2O1 (stereo not given)	inconclusive: 24%
CC(=O)N[C@H]1CC[C@@H](CCNC(=O)C2CCCC2)O[C@@H]1CO	active: 27%
C[C@H](CO)N1C[C@H](C)[C@@H](CN(C)C(=O)C2CC2)OCc2cnnn2CCCC1=O	active: 49.4%
COc1ccc(Cl)cc1NC(=O)/C=C/C(=O)O	inconclusive: 26.2%
CCOC(=O)N1CCC(NS(=O)(=O)c2ccc(C#N)cc2)CC1	active: 46.8%
Cc1ccc(NC(=O)C(C)OC(=O)C2CC3CCCC(C2)C3=O)cc1S(=O)(=O)N1CCOCC1 (stereo not given)	inconclusive: 24.5%
O=C(c1ccc(N2CCCCC2)c([N+](=O)[O-])c1)N1CCN(c2ccccn2)CC1	inactive: -0.253%
C[C@H](CO)N1C[C@H](C)[C@@H](CN(C)C(=O)Nc2ccc(F)cc2)OCc2cnnn2CCCC1=O	inconclusive: 36.2%
C[C@@H]1CN([C@@H](C)CO)C(=O)c2cc(NC(=O)Nc3ccc(F)cc3)ccc2O[C@@H]1CN(C)Cc1ccc(C(=O)O)cc1	inconclusive: 37.7%
CC(=O)N1CC[C@H]2[C@H](CO)Nc3ccc(-c4ccccc4)cc3[C@H]21	inconclusive: 22.3%
Cc1ccc(S(=O)(=O)Nc2ccccc2C(=O)NCC2CCCO2)cc1 (stereo not given)	inconclusive: 56.8%
C#CCN(C[C@@H]1[C@@H](OC(=O)Nc2cccs2)[C@@H](OC(=O)Nc2cccs2)C[C@H](C(=O)OC)[C@@H]1C(=O)OC)S(=O)(=O)c1ccc(C)cc1	inactive: 19.5%
CO[C@@H]1CN(C)C(=O)c2cc(NC(=O)c3ccc4c(c3)OCO4)ccc2OC[C@@H](C)N(CCC(F)(F)F)C[C@H]1C	active: 22.8%
COc1cccc(C(=O)Nc2ccc3c(c2)OC[C@@H](C)NC[C@@H](C)[C@H](OC)CN(C)C3=O)c1	active: 22.3%
CC1(C(=O)Nc2ccc3c(c2)OCCO3)CCN1Cc1ccc2ccccc2c1 (stereo not given)	inconclusive: 25.1%
C[C@H](CO)N1C[C@H](C)[C@@H](CN(C)C(=O)NC2CCCCC2)Oc2ccc(NS(C)(=O)=O)cc2C1=O	active: 28.9%
COc1ccc(NC(=O)N(C)C[C@@H]2Oc3ncc(C#C[C@@H](C)O)cc3C(=O)N([C@@H](C)CO)C[C@H]2C)cc1	inactive: -3.81%
CCOc1ccc2oc(C(=O)N(C)CC(=O)Nc3ccc(OCC)c(OCC)c3)c(C)c2c1	inconclusive: 31%
NS(=O)(=O)c1ccc(CNc2nc(-c3cccnc3)nc3ccccc23)cc1	inconclusive: 23.9%
COc1cccc(-c2cnc3c(c2)C(=O)N([C@H](C)CO)C[C@H](C)[C@H](CN(C)C(=O)Nc2ccc(F)cc2)O3)c1	inconclusive: 49%
CCCCn1c(N)c(N(CCC(C)C)C(=O)c2cc(-c3ccco3)nc3ccccc23)c(=O)[nH]c1=O	inactive: 5.23%
Cc1cccc(NC(=O)CNC(=O)CSc2nc(N)cc(N)n2)c1C	inconclusive: 32.7%

Compounds above that have a cyano group:
SMILES	CPE inhibition
CN(C)C(=O)c1ccc(-c2ccc([C@H]3[C@@H](C#N)N(C(=O)Cc4ccccn4)[C@@H]3CO)cc2)cc1	inconclusive: 35%
CN(C)C(=O)c1cccc(-c2ccccc2[C@H]2[C@@H](C#N)N(C(=O)C3CC3)[C@H]2CO)c1	active: 42.9%
CCOC(=O)N1CCC(NS(=O)(=O)c2ccc(C#N)cc2)CC1	active: 46.8%

From PubChem BioAssay AID651640 (Broad Institute, 2012)
